PubChem BioAssay AID652259 | Drosophila RNAi Screening Center, 2013

Test: 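Knock-downs that push a Wingless-driven reporter up or down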 (primary screen)
System: Drosophila clone 8 imaginal disc epithelial cells
Knock-down reagent: long dsRNA against Drosophila genes
Treatment: pathway stimulated by co-transfected Wingless expression plasmid
Read-out: 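Dual luciferase reads per well after Wingless plasmid stimulation: reporter firefly light and Renilla control light; activity is firefly divided by Renilla, a ratio not deposited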
Scale: firefly reporter light: higher = more Wg reporter light, before normalisation; Renilla control light: higher = more transfected or surviving cells
Rule for the call: 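Strong candidates differ from their plate mean by at least two out of four per-plate statistical tests; weak candidates meet just one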
Calls: active = candidate regulator (raises or lowers reporter); inactive = not a candidate
The deposit covers about 22,000 reagents; this is a random part of those that have a named target and a result. Of all reagents, 233 (1.1%) were called active. 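Light values are raw, unnormalised plate reads; the ratio scores behind the reporter calls were not deposited.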 Names joined by + are all predicted targets of the reagent. Not given: the amount of reagent, the time to read-out, the dose of the treatment.

| gene | DRSC id | reporter change call, replicate 1 | firefly reporter light, replicate 1 | firefly reporter light, replicate 2 | Renilla control light, replicate 1 | Renilla control light, replicate 2 | activity call |
| --- | --- | --- | --- | --- | --- | --- | --- |
| CG7341 | DRSC10818 | – | 3452 | – | 1137 | – | inactive |
| CG18598 | DRSC15356 | – | 12171 | – | 1755 | – | inactive |
| Hira | DRSC18672 | – | 24972 | – | 14026 | – | inactive |
| Mcm2 | DRSC16734 | – | 22179 | – | 4977 | – | inactive |
| sv | DRSC17221 | – | 16000 | – | 12704 | – | inactive |
| Mctp | DRSC06510 | – | 8117 | – | 3032 | – | inactive |
| Mctp | DRSC22896 | – | 9.59e5 | 8.65e5 | 5.15e5 | 232 | inactive |
| Jarid2 | DRSC10372 | – | 9680 | – | 2281 | – | inactive |
| TyrRS-m | DRSC04286 | – | 8885 | – | 3555 | – | inactive |
| bisc | DRSC04083 | – | 12384 | – | 3501 | – | inactive |
| MESR6 | DRSC10720 | – | 7943 | – | 2467 | – | inactive |
| CG13069 | DRSC09952 | – | 8024 | – | 4492 | – | inactive |
| AdoR | DRSC16556 | – | 3240 | – | 1648 | – | inactive |
| CG11980 | DRSC14456 | – | 5003 | – | 2048 | – | inactive |
| brp | DRSC06245 | – | 2821 | 8169 | 742 | 3223 | inactive |
| brp | DRSC06246 | – | 2667 | 6509 | 506 | 2497 | inactive |
| brp | DRSC06801 | – | 3241 | 8961 | 617 | 3081 | inactive |
| brp | DRSC21893 | – | 5.27e5 | 5.37e5 | 1.43e5 | 1.44e5 | inactive |
| dao | DRSC01960 | – | 2904 | 5537 | 1205 | 3127 | inactive |
| Gapdh1 | DRSC07433 | – | 2496 | 5861 | 163 | 2610 | inactive |
| Brca2 | DRSC04219 | Wg reporter activity lowered | 1587 | 4987 | 922 | 2461 | inactive |
| Brca2 | DRSC04220 | – | 2853 | 7387 | 720 | 1936 | inactive |
| CG10357 | DRSC08155 | – | 4137 | – | 2390 | – | inactive |
| CG18266 | DRSC02659 | – | 11496 | – | 5137 | – | inactive |
| CG15482 | DRSC02492 | – | 2283 | 5099 | 1170 | 2861 | inactive |
| chb | DRSC11469 | – | 4987 | – | 1696 | – | inactive |
| aux | DRSC12161 | – | 7867 | – | 2817 | – | inactive |
| alpha4GT1 | DRSC00488 | – | 9782 | – | 4279 | – | inactive |
| VGlut | DRSC00733 | – | 4288 | 9339 | 1496 | 3201 | inactive |
| VGlut | DRSC21821 | – | 6.10e5 | 4.79e5 | 3.33e5 | 1.60e5 | inactive |
| COX7AL2 | DRSC00099 | – | 16442 | – | 10085 | – | inactive |
| CG11275 | DRSC04095 | – | 3509 | 9712 | 711 | 3746 | inactive |
| CCAP-R | DRSC14891 | – | 12612 | – | 12807 | – | inactive |
| CCAP-R | DRSC15967 | – | 22169 | – | 15899 | – | inactive |
| CG13578 | DRSC04214 | – | 2052 | 7079 | 763 | 2632 | inactive |
| Yod1 | DRSC10433 | – | 11780 | – | 4168 | – | inactive |
| CG3764 | DRSC10375 | – | 4320 | – | 1672 | – | inactive |
| xmas-1 (retired record) | DRSC20386 | – | 14949 | – | 9636 | – | inactive |
| CG15443 | DRSC00455 | – | 2504 | 8935 | 755 | 2729 | inactive |
| CG14573 | DRSC11734 | – | 12763 | – | 4774 | – | inactive |
| Prp18 | DRSC16802 | – | 1707 | 6141 | 368 | 1864 | inactive |
| CG14696 | DRSC14919 | – | 12404 | – | 3744 | – | inactive |
| CG14106 | DRSC10109 | – | 6336 | – | 2626 | – | inactive |
| CG14852 | DRSC14976 | – | 13339 | – | 3206 | – | inactive |
| robl | DRSC07674 | – | 6058 | – | 2843 | – | inactive |
| otp | DRSC04050 | Wg reporter activity raised | 4898 | 11956 | 460 | 1376 | active |
| otp | DRSC04707 | – | 3431 | 12080 | 528 | 1894 | inactive |
| CG3598 | DRSC18471 | – | 19613 | – | 14713 | – | inactive |

The list goes on (6 carried over from the part before).
| gene | DRSC id | reporter change call, replicate 1 | firefly reporter light, replicate 1 | firefly reporter light, replicate 2 | Renilla control light, replicate 1 | Renilla control light, replicate 2 | activity call |
| --- | --- | --- | --- | --- | --- | --- | --- |
| CG14106 | DRSC10109 | – | 6336 | – | 2626 | – | inactive |
| CG14852 | DRSC14976 | – | 13339 | – | 3206 | – | inactive |
| robl | DRSC07674 | – | 6058 | – | 2843 | – | inactive |
| otp | DRSC04050 | Wg reporter activity raised | 4898 | 11956 | 460 | 1376 | active |
| otp | DRSC04707 | – | 3431 | 12080 | 528 | 1894 | inactive |
| CG3598 | DRSC18471 | – | 19613 | – | 14713 | – | inactive |
| Cyp12e1 | DRSC16622 | – | 10008 | – | 2421 | – | inactive |
| CG30379 | DRSC05070 | – | 15410 | – | 7936 | – | inactive |
| RpS19a | DRSC20281 | – | 16489 | – | 9661 | – | inactive |
| Xrcc2 | DRSC19984 | – | 16372 | – | 6333 | – | inactive |
| sut4 | DRSC07703 | – | 8317 | – | 3265 | – | inactive |
| SLIRP2 | DRSC16363 | – | 15635 | – | 4224 | – | inactive |
| CstF64 | DRSC16616 | – | 15313 | – | 4842 | – | inactive |
| CG2100 | DRSC12303 | – | 7584 | – | 2567 | – | inactive |
| CG12170 | DRSC12199 | – | 8328 | – | 3397 | – | inactive |
| CG12057 | DRSC17797 | – | 16891 | – | 9782 | – | inactive |
| Pa1 | DRSC19422 | – | 16057 | – | 7015 | – | inactive |
| CG14340 | DRSC00370 | – | 2696 | 7735 | 816 | 2592 | inactive |
| CG6040 | DRSC15954 | – | 1952 | 4407 | 672 | 1408 | inactive |
| GCS2alpha | DRSC21036 | – | 13346 | – | 1077 | – | inactive |
| CR18217 | DRSC21506 | – | 9.18e5 | 8.46e5 | 3.79e5 | 3.59e5 | inactive |
| CG43174 (retired record) | DRSC09518 | – | 4464 | – | 2181 | – | inactive |
| CG4744 | DRSC06887 | – | 17328 | – | 5031 | – | inactive |
| l(2)k10201 | DRSC06439 | – | 2957 | 7372 | 721 | 3267 | inactive |
| l(2)k10201 | DRSC07640 | – | 2498 | 7255 | 617 | 2520 | inactive |
| CG7083 | DRSC11136 | – | 1364 | 5545 | 976 | 2672 | inactive |
| hth | DRSC16967 | – | 15448 | – | 2897 | – | inactive |
| CG12506 | DRSC00347 | – | 2820 | 7744 | 1280 | 2992 | inactive |
| mute | DRSC06562 | Wg reporter activity raised | 12186 | – | 1081 | – | active |
| mute | DRSC22931 | – | 7.26e5 | 8.05e5 | 1.71e5 | 2.11e5 | inactive |
| CG42568 + DnaJ-60 | DRSC04207 | – | 3464 | 8486 | 480 | 2274 | inactive |
| CG42568 + DnaJ-60 | DRSC04611 | – | 14061 | – | 4144 | – | inactive |
